Measurements: PubChem BioAssay AID318 (DTP/NCI, 2004)
The list is a part of this screen's results and no random one: it gathers some chemical classes. Other doses and runs of a compound may be missing. T/C: endpoint of the treated group in % of that of the vehicle group. Some doses have a count of surviving animals in place of a T/C: the source holds a T/C of zero for them, seemingly a mark for toxic or unscored doses. Some doses without a T/C left all or most animals alive at the check, yet need not have been tolerated: the source hardly ever lists a survival T/C far under the control, and the zero likely stands for such cases as well. Survivors were counted at the toxicity check, usually on the fifth day, unless a day is given; later deaths do not show. Schedules are NCI's codes, read here as Q, the interval in days (D) or hours (H), X, the number of doses. Some entries were tested several times; the values are given in rising order. Where survival is the endpoint, this PubChem deposit counts one and a half times the control or more as active, and values a quarter to a half above the control carry no call in these data; other NCI protocols may use other cut-offs.

Test system: BDF1 mice, P815 leukemia ip, survival T/C
Experiment: NCI In Vivo Anticancer Drug Screen. Data for tumor model P815 Mast Cell Leukemia (Ascitic) (intraperitoneal) in B6D2F1 (BDF1) mice
Settings: T/C endpoint: survival time, mean or median, schedule: Q01DX010 (ip), vehicle: saline, higher T/C = longer survival
Method: The antitumor activity of compounds was measured in mice bearing transplantable tumors. Survival or tumor size were measured and the results are expressed as the measurement made in the treated group (T) divided by the measurement made in the vehicle treated control group (C). The tumor model used in this assay is P815 Mast Cell Leukemia (Ascitic) (intraperitoneal) in B6D2F1 (BDF1) mice

NC1CCCCC1.O=P(O)(N(CCCl)CCCl)N1CC1
T/C (dose: 1.25 mg/kg/injection): 90 % of control | T/C (dose: 2.5 mg/kg/injection): 110 and 122 % of control | T/C (dose: 5.0 mg/kg/injection): 122 and 140 % of control | T/C (dose: 10.0 mg/kg/injection): 216 and 225 % of control | T/C (dose: 20.0 mg/kg/injection): 205 % of control

CN(N=O)C(=N)N[N+](=O)[O-]
T/C (dose: 8.0 mg/kg/injection): 154 and 163 % of control | T/C (dose: 16.0 mg/kg/injection): 159 and 168 % of control | T/C (dose: 32.0 mg/kg/injection): 90 and 95 % of control | survivor count (dose: 64.0 mg/kg/injection): 4 of 6 and 6 of 6

Cc1[nH]c(=O)[nH]c(=O)c1N(CCCl)CCCl
T/C (dose: 0.5 mg/kg/injection): 105 and 112 % of control | T/C (dose: 1.0 mg/kg/injection): 111 and 112 % of control | T/C (dose: 2.0 mg/kg/injection): 105 and 137 % of control | T/C (dose: 4.0 mg/kg/injection): 87 % of control | survivor count (dose: 4.0 mg/kg/injection): 6 of 6
